Reference: publication PMC4264851
No constants are given. Whether binding was seen depends on the method and setting. In cells and extracts the contact can be indirect. Here binding means that the protein was enriched with, or labelled near, the bait; the list need not be complete. For part of these data: Tags and fused reporters may be left off the sequences shown.

Legend:
Utp6-HA (S. cerevisiae) [1] = biological target: T1, Utp6-HA (S. cerevisiae) (UniProt Q02354); assay: affinity purification with mass spectrometry; bacmid K1991 (six UTP B proteins); two-step: IgG Sepharose/TEV eluate (Pwp2-TAP) purified again on anti-HA affinity matrix with Utp6-HA as bait, HA peptide elution; SDS-PAGE, Coomassie, MS of bands
T1 sequence: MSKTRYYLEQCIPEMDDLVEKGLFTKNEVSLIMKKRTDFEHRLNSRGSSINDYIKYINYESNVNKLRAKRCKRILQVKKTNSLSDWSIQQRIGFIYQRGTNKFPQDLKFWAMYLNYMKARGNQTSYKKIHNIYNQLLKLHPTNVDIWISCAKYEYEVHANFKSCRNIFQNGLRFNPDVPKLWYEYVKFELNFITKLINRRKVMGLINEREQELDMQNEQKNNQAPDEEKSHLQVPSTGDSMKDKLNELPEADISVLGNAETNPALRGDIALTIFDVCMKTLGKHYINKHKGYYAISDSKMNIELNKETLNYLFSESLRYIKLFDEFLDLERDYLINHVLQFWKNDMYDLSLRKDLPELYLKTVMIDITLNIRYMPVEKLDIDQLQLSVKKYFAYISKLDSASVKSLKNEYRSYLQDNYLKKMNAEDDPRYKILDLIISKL

[2] = biological target: T2, Utp21-TAP (S. cerevisiae) (UniProt Q06078); assay: affinity purification with mass spectrometry; only Utp21-TAP, Utp6-HA and Utp18 co-expressed in SF21 cells (bacmid K2136); one-step, bait Utp21-TAP on IgG-coupled beads with TEV elution, or bait Utp6-HA by HA affinity purification; SDS-PAGE and MS
T2 sequence: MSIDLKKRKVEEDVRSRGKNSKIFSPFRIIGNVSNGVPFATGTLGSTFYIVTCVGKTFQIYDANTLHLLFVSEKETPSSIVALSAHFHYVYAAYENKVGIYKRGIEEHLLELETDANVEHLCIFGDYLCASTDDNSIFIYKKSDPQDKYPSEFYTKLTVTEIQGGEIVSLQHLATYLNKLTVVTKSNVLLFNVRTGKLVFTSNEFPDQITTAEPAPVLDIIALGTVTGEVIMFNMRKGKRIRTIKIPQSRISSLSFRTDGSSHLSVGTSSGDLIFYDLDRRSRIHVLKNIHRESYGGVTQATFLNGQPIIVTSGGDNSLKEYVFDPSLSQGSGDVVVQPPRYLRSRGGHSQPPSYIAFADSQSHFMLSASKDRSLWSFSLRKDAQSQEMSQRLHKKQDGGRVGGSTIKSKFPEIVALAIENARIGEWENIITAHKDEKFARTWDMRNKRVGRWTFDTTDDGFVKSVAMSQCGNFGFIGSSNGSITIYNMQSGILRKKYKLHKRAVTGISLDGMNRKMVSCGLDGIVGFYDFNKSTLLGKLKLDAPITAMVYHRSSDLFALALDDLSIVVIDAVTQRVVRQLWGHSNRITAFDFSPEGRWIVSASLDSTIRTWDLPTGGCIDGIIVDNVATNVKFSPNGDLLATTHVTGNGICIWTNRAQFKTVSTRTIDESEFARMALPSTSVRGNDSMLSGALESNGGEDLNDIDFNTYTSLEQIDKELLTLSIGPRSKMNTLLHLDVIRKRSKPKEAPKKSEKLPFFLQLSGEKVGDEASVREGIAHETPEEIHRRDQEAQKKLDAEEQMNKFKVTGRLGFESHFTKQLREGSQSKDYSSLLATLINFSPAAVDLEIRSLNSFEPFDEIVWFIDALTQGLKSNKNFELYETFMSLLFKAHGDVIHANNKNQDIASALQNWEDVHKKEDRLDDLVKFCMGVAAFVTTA

Utp6-HA (S. cerevisiae) [3] = biological target: T1, Utp6-HA (S. cerevisiae); assay: as above
[4] = biological target: T3, Utp12-FLAG (S. cerevisiae) (UniProt Q12220); assay: affinity purification with mass spectrometry; Pwp2, Utp6-HA, Utp12-FLAG, Utp13, Utp18 and Utp21 co-expressed in SF21 cells (bacmid K1992); one-step, bait Utp12-FLAG on anti-FLAG affinity matrix, FLAG peptide elution; SDS-PAGE, Coomassie, MS of bands
T3 sequence: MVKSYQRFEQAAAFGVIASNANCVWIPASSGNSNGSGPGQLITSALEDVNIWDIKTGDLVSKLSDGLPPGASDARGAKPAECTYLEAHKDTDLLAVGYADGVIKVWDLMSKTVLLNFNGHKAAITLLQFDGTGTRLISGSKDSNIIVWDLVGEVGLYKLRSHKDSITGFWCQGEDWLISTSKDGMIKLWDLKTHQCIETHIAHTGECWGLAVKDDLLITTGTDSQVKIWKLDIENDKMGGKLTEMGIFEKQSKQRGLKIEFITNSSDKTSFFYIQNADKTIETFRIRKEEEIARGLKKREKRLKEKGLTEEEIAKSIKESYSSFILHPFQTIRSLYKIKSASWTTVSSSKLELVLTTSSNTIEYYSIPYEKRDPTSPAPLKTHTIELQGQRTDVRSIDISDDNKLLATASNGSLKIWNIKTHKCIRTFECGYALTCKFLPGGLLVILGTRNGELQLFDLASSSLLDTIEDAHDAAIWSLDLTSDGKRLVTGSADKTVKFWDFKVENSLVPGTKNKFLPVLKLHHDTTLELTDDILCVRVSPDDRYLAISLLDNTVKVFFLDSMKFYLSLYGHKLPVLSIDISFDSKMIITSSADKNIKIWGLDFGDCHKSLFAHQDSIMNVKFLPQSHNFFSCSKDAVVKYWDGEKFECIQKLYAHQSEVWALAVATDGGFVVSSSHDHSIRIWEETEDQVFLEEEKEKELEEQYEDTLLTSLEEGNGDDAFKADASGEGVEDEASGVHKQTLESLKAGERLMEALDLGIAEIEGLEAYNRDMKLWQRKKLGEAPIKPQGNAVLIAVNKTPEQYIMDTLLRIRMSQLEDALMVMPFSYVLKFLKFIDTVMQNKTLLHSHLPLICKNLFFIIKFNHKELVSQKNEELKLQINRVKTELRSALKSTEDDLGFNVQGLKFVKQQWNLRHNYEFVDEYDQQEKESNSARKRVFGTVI

Utp6-HA (S. cerevisiae) [5] = biological target: T1, Utp6-HA (S. cerevisiae); assay: affinity purification with mass spectrometry; only Pwp2-TAP, Utp6-HA and Utp18 co-expressed in SF21 cells (bacmid K2134); one-step, bait Pwp2-TAP on IgG-coupled beads with TEV elution, or bait Utp6-HA by HA affinity purification; SDS-PAGE and MS
Utp6-HA (S. cerevisiae) [6] = biological target: T1, Utp6-HA (S. cerevisiae); assay: affinity purification with mass spectrometry; bacmid K1992 (six UTP B proteins); two-step: anti-FLAG eluate (Utp12-FLAG) purified again on anti-HA affinity matrix with Utp6-HA as bait, HA peptide elution; SDS-PAGE, Coomassie, MS of bands
[7] = biological target: T2, Utp21-TAP (S. cerevisiae); assay: affinity purification with mass spectrometry; only Utp21-TAP, Utp6-HA, Utp18 and Pwp2 co-expressed in SF21 cells (bacmid K2137); one-step, bait Utp21-TAP on IgG-coupled beads with TEV elution, or bait Utp6-HA by anti-HA affinity purification; SDS-PAGE and MS
Utp6-HA (S. cerevisiae) [8] = biological target: T1, Utp6-HA (S. cerevisiae); assay: as above
Utp6-HA (S. cerevisiae) [9] = biological target: T1, Utp6-HA (S. cerevisiae); assay: affinity purification with mass spectrometry; only Utp6-HA and Utp18 co-expressed in SF21 cells (bacmid K2139); one-step, bait Utp6-HA by HA affinity purification; SDS-PAGE and MS

binding (Utp6-HA (S. cerevisiae) [1]): binds | binding [2]: binds | binding (Utp6-HA (S. cerevisiae) [3]): binds | binding [4]: binds | binding (Utp6-HA (S. cerevisiae) [5]): binds | binding (Utp6-HA (S. cerevisiae) [6]): binds | binding [7]: binds | binding (Utp6-HA (S. cerevisiae) [8]): binds | binding (Utp6-HA (S. cerevisiae) [9]): binds
B1: Utp18 (protein, UniProt P40362 1-594)
chain: MTMATTAMNVSVPPPDEEEQLLAKFVFGDTTDLQENLAKFNADFIFNEQEMDVEDQEDEGSESDNSEEDEAQNGELDHVNNDQLFFVDDGGNEDSQDKNEDTMDVDDEDDSSSDDYSEDSEEAAWIDSDDEKIKVPILVTNKTKKLRTSYNESKINGVHYINRLRSQFEKIYPRPKWVDDESDSELDDEEDDEEEGSNNVINGDINALTKILSTTYNYKDTLSNSKLLPPKKLDIVRLKDANASHPSHSAIQSLSFHPSKPLLLTGGYDKTLRIYHIDGKTNHLVTSLHLVGSPIQTCTFYTSLSNQNQQNIFTAGRRRYMHSWDLSLENLTHSQTAKIEKFSRLYGHESTQRSFENFKVAHLQNSQTNSVHGIVLLQGNNGWINILHSTSGLWLMGCKIEGVITDFCIDYQPISRGKFRTILIAVNAYGEVWEFDLNKNGHVIRRWKDQGGVGITKIQVGGGTTTTCPALQISKIKQNRWLAVGSESGFVNLYDRNNAMTSSTPTPVAALDQLTTTISNLQFSPDGQILCMASRAVKDALRLVHLPSCSVFSNWPTSGTPLGKVTSVAFSPSGGLLAVGNEQGKVRLWKLNHY
